Test results taken from PubChem BioAssay AID493014 (National Center for Advancing Translational Sciences (NCATS), 2011).
Screen size: about 340,000 compounds; about 170 (0.05%) were called active. The inconclusive results got no clear call from the source; some entries with a clear call stand among them for comparison. The call rests on the fitted dose curve; in most records, active means well fitted inhibition curve with a large enough effect in the signal ratio, with a control signal flat (not every such curve was filed as active); inconclusive means small, poorly fitted or top-dose-only effect, or effect the other way, or a change in a side signal; inactive means flat fitted curve, though single readings scatter; the % refers to the signal ratio. A potency beside an inconclusive call is a rough fit, not a confirmed value.

Assay: qHTS Assay to Find Inhibitors of Chronic Active B-Cell Receptor Signaling;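 on activity change, negative = inhibition: plate controls were basal doxycycline-induced cells for no effect and cells given 10 µM MG132 for full effect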
Details: ABC-DLBCL IkBa-CBG/CBR reporter, luminescence ratio (green luciferase fused to IkBa over red control in TMD8 lymphoma cells), 4 h; activity change, negative = inhibition: at 46.1 µM (top of the series)
In short: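 Cell line TMD8 (human ABC DLBCL), stably expressing tet-inducible CBG68-IkBa fusion and CBR; IMDM/0.5% FBS; cpd up to 46 uM; dox induction, 4 h, 37C/5% CO2; dual luminescence; green/red ratio; MG132 control.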
Potency means the concentration at half of the fitted maximal effect.

Question: Which Potency does the source give for COc1ccc(-c2[nH]c(-c3ccc(C(=O)O)cc3)nc2-c2ccccc2)cc1 here?
Answer: Its Potency is inconclusive: 22.4 µM [falling, partial curve, poor fit].

Question: Which Potency does the source give for O=C(N/N=C/c1cc([N+](=O)[O-])ccc1O)C(O)(c1ccccc1)c1ccccc1 here?
Answer: Its Potency is inconclusive: 15.8 µM [falling, single point].

Question: With CCOC(=O)c1sc2ncc([N+](=O)[O-])cc2c1N as the compound, how does the “activity change, negative = inhibition” value read?
Answer: The value was inactive: 12.9%.

Question: For CC(=O)c1ccc(OCc2cc(C(=O)N3CCC(c4ccncc4)CC3)no2)cc1, which “activity change, negative = inhibition” value is on record?
Answer: The value was inactive: -2.7%.

Question: With O=C1CCS/C(=N\N=C\c2ccc(Cl)cc2Cl)N1 as the compound, how does the activity change, negative = inhibition read?
Answer: Its activity change, negative = inhibition is inconclusive: 8.16%.

Question: Which activity change, negative = inhibition does the source give for NC(=O)C1CC(=O)N(c2ccc(OCC(=O)Nc3ccc(F)cc3)cc2)C1 (configuration not stated) here?
Answer: The activity change, negative = inhibition was inconclusive: -1.79%.

Question: For CCCC(=O)c1ccc(N2CCCCC2)c(F)c1, which activity change, negative = inhibition is on record?
Answer: Its activity change, negative = inhibition is inconclusive: 5.77%.

Question: Which activity change, negative = inhibition does the source give for COc1cc2c(cc1OC)CN(c1nc(CN3CCCC3)nc3sc(C)c(C)c13)CC2 here?
Answer: The activity change, negative = inhibition was inconclusive: -0.209%.

Question: With O=C(NCc1ccc2c(c1)OCO2)c1cccc([N+](=O)[O-])c1 as the compound, how does the activity change, negative = inhibition read?
Answer: Its activity change, negative = inhibition is inconclusive: 5.25%.

Question: With C(#Cc1ccccc1)C[N+]1(CC#Cc2ccccc2)CCCCC1 as the compound, how does the “activity change, negative = inhibition” value read?
Answer: Its value is inactive: 5.31%.

Question: With Cc1ccc(S(=O)(=O)c2c(C)cc(C)nc2Cl)c(C)c1 as the compound, how does the “activity change, negative = inhibition” value read?
Answer: The value was inactive: -2.35%.

Question: With O=C(NC1CCCCC1)C(c1cccnc1)N(CCc1ccccc1)C(=O)Cc1cccs1 (configuration not stated) as the compound, how does the “activity change, negative = inhibition” value read?
Answer: Its value is inactive: 0.134%.

Question: For Cc1ccc(-c2csc(NC(=O)COC(=O)c3cccc(S(=O)(=O)N4CCOCC4)c3)n2)cc1, which activity change, negative = inhibition is on record?
Answer: Its activity change, negative = inhibition is inconclusive: -1.64%.

Question: With O=C(Nc1ccc(N2CCN(C(=O)c3ccco3)CC2)cc1)c1ccccc1 as the compound, how does the activity change, negative = inhibition read?
Answer: Its activity change, negative = inhibition is inconclusive: 0.844%.

Question: Which “activity change, negative = inhibition” value does the source give for Cn1c(SCc2ccccc2)nnc1-c1ccc2nonc2c1 here?
Answer: The value was inactive: -11.4%.

Question: For Fc1ccc(-c2nc3c(Cl)cc(C(F)(F)F)cn3c2Cl)cc1, which activity change, negative = inhibition is on record?
Answer: The activity change, negative = inhibition was inconclusive: 14.2%.

Question: With Oc1nc(Nc2ccccc2)sc1/C=C1\C=Nc2ccccc21 as the compound, how does the Potency read?
Answer: Its Potency is inconclusive: 25.1 µM [falling, single point].

Question: Which activity change, negative = inhibition does the source give for CCCC(=O)NC(=S)Nc1ccc(CN2CCOCC2)cc1 here?
Answer: Its activity change, negative = inhibition is inconclusive: -13.4%.

Question: Which “activity change, negative = inhibition” value does the source give for COC(=O)CN1C(=O)N/C(=C/c2ccc(C)o2)C1=O here?
Answer: Its value is inactive: -23.9%.

Question: For CCOc1ccccc1Nc1nnc(SCC(=O)Nc2cc(C)on2)s1, which Potency is on record?
Answer: Its Potency is inconclusive: 7.08 µM [falling, partial curve, poor fit].

Question: Which “activity change, negative = inhibition” value does the source give for Cc1cc2ccccn2c1C(=O)c1ccc(F)cc1 here?
Answer: Its value is inactive: 8.61%.

Question: For Cn1c(NC(=O)/C=C/c2ccccc2)cc(=O)n(C)c1=O, which activity change, negative = inhibition is on record?
Answer: The activity change, negative = inhibition was inconclusive: 14%.

Question: For COc1ccc(/C=N\NC(=O)COc2ccc(C(C)(C)C)cc2)cc1Cn1nc(C)cc1C, which activity change, negative = inhibition is on record?
Answer: The activity change, negative = inhibition was inconclusive: -1.58%.

Question: With Cc1ccc2cc(S(=O)(=O)NCCC(=O)O)ccc2c1 as the compound, how does the Potency read?
Answer: The Potency was inconclusive: 18.4 µM [falling, single point].

Question: Which activity change, negative = inhibition does the source give for FC(F)(F)c1cc(-c2ccco2)nc(NCc2ccccc2)n1 here?
Answer: The activity change, negative = inhibition was inconclusive: 10.3%.

Question: Which “activity change, negative = inhibition” value does the source give for O=C1CCC[C@@H]2[C@H]3CCC[N+]4([O-])CCC[C@@H](CN12)[C@@H]34 (some centres not stated) here?
Answer: The value was inactive: -3.46%.

Question: Which “activity change, negative = inhibition” value does the source give for O=C(C[C@@H]1C/C=C\C[C@H](Cc2ccc(F)cc2)C(=O)OC[C@H]2CCCN2C1=O)NCCO here?
Answer: The value was inactive: -1.54%.

Question: Which activity change, negative = inhibition does the source give for COc1ccc(CN(C)C(=O)Cc2ccc(OC)c(S(=O)(=O)N3CCOCC3)c2)cc1 here?
Answer: The activity change, negative = inhibition was inconclusive: 0.571%.

Question: Which activity change, negative = inhibition does the source give for Cc1nc2ccc(NC(=O)c3ccc(Cl)c(S(=O)(=O)N(C)c4ccccc4)c3)cc2s1 here?
Answer: The activity change, negative = inhibition was inconclusive: 3.78%.

Question: For O=C(NCCc1ccccc1)C(=O)Nc1ccc([N+](=O)[O-])cc1, which activity change, negative = inhibition is on record?
Answer: Its activity change, negative = inhibition is inconclusive: 10.1%.

Question: With CCCCNC(=O)C(C)N(CCN(C)C)C(=O)CCCCCN1C(=O)NC(c2ccc(Cl)cc2)C(C(=O)OCc2ccccc2)=C1C (configuration not stated) as the compound, how does the Potency read?
Answer: The Potency was inconclusive: 29.1 µM [falling, single point].

Question: Which Potency does the source give for CCN1C/C(=C/c2cccc([N+](=O)[O-])c2)C(=O)/C(=C/c2cccc([N+](=O)[O-])c2)C1 here?
Answer: Its Potency is inconclusive: 23.1 µM [falling, single point].

Question: For Cc1ccc(NC(=O)C(C)c2ccc(-c3ccccc3)c(F)c2)cc1 (configuration not stated), which activity change, negative = inhibition is on record?
Answer: Its activity change, negative = inhibition is inconclusive: 21.4%.

Question: With CCOC(=O)CNc1c(-c2ccc(O)cc2)nc2ccccn12 as the compound, how does the activity change, negative = inhibition read?
Answer: Its activity change, negative = inhibition is inconclusive: -1.33%.

Question: Which Potency does the source give for COc1ccc(NS(=O)(=O)c2cc(NC(=O)c3ccccc3F)ccc2N2CCCC2)cc1 here?
Answer: The Potency was inconclusive: 14.1 µM [falling, partial curve].

Question: For O=C(N/N=C/c1c(F)cccc1Cl)c1cc(C2CC2)[nH]n1, which Potency is on record?
Answer: The Potency was inconclusive: 31.6 µM [falling, partial curve].

Question: For CN(C)CCN(C(=O)c1ccc(N2C(=O)CCC2=O)cc1)c1nc2cc3c(cc2s1)OCCO3, which activity change, negative = inhibition is on record?
Answer: Its activity change, negative = inhibition is inconclusive: -23.1%.

Question: Which activity change, negative = inhibition does the source give for COC(=O)c1ccccc1S(=O)(=O)N1CCC(NC(=O)c2ccccc2)CC1 here?
Answer: Its activity change, negative = inhibition is inconclusive: 2.94%.

Question: For CCOC(=O)CN(C(=O)CSc1nnc(C)n1-c1ccccc1)c1ccccc1, which “activity change, negative = inhibition” value is on record?
Answer: Its value is inactive: 1.08%.

Question: Which activity change, negative = inhibition does the source give for O=C(COC(=O)CC1CCCC1)Nc1cccc(F)c1 here?
Answer: Its activity change, negative = inhibition is inconclusive: 5.68%.

Question: With O=S(=O)(NCc1nnc2ccccn12)c1ccc(Cl)cc1 as the compound, how does the activity change, negative = inhibition read?
Answer: Its activity change, negative = inhibition is inconclusive: -2.42%.

Question: Which activity change, negative = inhibition does the source give for CCOC(=O)C1CCCN(S(=O)(=O)c2cc(C(=O)OC)n(C)c2)C1 (configuration not stated) here?
Answer: Its activity change, negative = inhibition is inconclusive: -3.56%.

Question: Which activity change, negative = inhibition does the source give for CCOc1nc(NC(=O)NS(=O)(=O)c2ccccc2F)nc(-c2ccccc2)n1 here?
Answer: The activity change, negative = inhibition was inconclusive: 9.01%.

Question: Which Potency does the source give for COC(=O)c1ccccc1NC(=O)CSc1nc(N)cc(N)n1 here?
Answer: Its Potency is inconclusive: 10 µM [falling, partial curve].

Question: Which activity change, negative = inhibition does the source give for O=C(c1ccccc1F)N1CCOCC1 here?
Answer: Its activity change, negative = inhibition is inconclusive: 8.52%.

Question: With CCOc1ccc2nc(NCCCO)[nH]c2c1 as the compound, how does the Potency read?
Answer: The Potency was inconclusive: 20.6 µM [falling, single point].

Question: Which “activity change, negative = inhibition” value does the source give for Cc1[nH]nc2c1C1(CCN(C(=O)c3ccccc3)CC1)C(C#N)=C(N)O2 here?
Answer: The value was inactive: -5.59%.

Question: For Cc1cccc(OCCCn2c(=O)sc3ccccc32)c1, which activity change, negative = inhibition is on record?
Answer: Its activity change, negative = inhibition is inconclusive: 11.8%.

Question: For O=C(Nc1cccc(Cl)c1)c1ccc2c(c1)OCCO2, which Potency is on record?
Answer: The Potency was inconclusive: 25.1 µM [falling, single point].

Question: Which activity change, negative = inhibition does the source give for COc1cscc1C(N)=O here?
Answer: The activity change, negative = inhibition was inconclusive: 22.8%.

Question: Which Potency does the source give for Cc1ccc(C(=O)O)c(C(=O)Nc2nc3ccccc3s2)c1 here?
Answer: Its Potency is inconclusive: 25.1 µM [falling, partial curve].

Question: For Cn1c(N)c(C#N)c(C#N)c1-c1ccccc1, which activity change, negative = inhibition is on record?
Answer: Its activity change, negative = inhibition is inconclusive: 2.66%.
